Source: patent publication US20250186540A1 (ICHIMARU PHARCOS CO., LTD., priority 2022, published 2025)

Test: peptide made by a vendor (Fmoc solid-phase peptide synthesis; C-terminal side-chain protected amino acid-resin; HATU/DIEA)
Conditions: whole synthesis

| Substance | purity (crude or final not stated) |
| --- | --- |
| Ac-c[Cys^1-Pro^2-Pro^3-Tyr^4-Leu^5-Pro^6-c(Lys^7-Tyr^8-Leu^9-Cys^10]-Asp^11)-Leu^12-Ile^13-NH2 (CPPYLPKYLCDLI; N-acetyl, C-amide, bicyclic disulfide and Lys-Asp lactam; MOD_RES 1 …ON; DISULFID 1..10 disulfide bond; CROSSLNK 7..11 Cyclization by amide linkage; MOD_RES 13 AMIDATION) | 100.0% |
| c(Mpa-Pro-Pro-Tyr-Leu-Pro-c[Lys-Tyr-Leu-Cys)-Asp]-Leu-Ile-NH2 | 95.9% |
